Consider one substance from article PMC3984710.

Results are given in words; binding and its absence hold for the method and conditions named. Binding seen in cells or lysates may run through a third protein. Binding can be weak; no strength is given. Sequences can lack the tags named with a protein.

The target in the test is T1, Miz-1/GFP (Myc-interacting zinc finger protein 1) (UniProt Q13105).
T1 sequence: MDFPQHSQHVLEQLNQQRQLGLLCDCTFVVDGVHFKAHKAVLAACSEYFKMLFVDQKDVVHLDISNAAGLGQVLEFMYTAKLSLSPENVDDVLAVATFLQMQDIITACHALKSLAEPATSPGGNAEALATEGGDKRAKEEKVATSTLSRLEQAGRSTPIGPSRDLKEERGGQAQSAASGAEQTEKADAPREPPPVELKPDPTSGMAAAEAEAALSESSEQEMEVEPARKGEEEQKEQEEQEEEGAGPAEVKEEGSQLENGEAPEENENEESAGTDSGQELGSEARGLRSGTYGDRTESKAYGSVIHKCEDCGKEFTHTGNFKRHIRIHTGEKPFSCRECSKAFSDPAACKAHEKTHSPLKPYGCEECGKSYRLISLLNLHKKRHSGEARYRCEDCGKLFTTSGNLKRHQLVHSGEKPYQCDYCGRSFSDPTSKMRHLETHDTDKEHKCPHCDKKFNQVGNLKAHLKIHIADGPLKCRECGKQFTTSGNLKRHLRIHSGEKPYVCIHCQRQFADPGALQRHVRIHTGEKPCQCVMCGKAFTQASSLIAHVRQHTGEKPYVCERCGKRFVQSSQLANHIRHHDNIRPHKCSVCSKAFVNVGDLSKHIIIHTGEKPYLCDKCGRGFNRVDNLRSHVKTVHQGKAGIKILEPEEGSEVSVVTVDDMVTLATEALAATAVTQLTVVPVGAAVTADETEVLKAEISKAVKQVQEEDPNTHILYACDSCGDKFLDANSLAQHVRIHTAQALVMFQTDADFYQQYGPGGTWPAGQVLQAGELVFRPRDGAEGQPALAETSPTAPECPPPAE
As to the kind of experiment: co-IP; Cos-1 cells co-transfected with Miz-1/GFP and Arnt/Flag variants; whole cell extract (25 mM Hepes, 100 mM NaCl, 5 mM EDTA, 0.5% Triton, 20% glycerol); IP with anti-GFP on Protein G agarose overnight at 4°C, immunoblot with anti-Flag.

For the substance “Arnt/Flag lacking the PAS domain (from UniProt P27540-2)”, the binding entry was “binds”.
